PubChem BioAssay AID720710, VTT Finland | 2013
In all, the deposit lists about 1,380 reagents; below is a random part of them. 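One array per condition without replicates; hydroxyurea arrays received 2 mM for 16 h plus 3 h recovery.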 The numbers tell different reagents against one gene apart. Not all columns of the deposit are shown.

Screen: 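siRNAs sensitising CCNE1-overexpressing U-2 OS cells to replication stress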 (primary screen)
Cell system: human U-2 OS bone cancer cells, parental and a cyclin E (CCNE1) overexpressing line
Knock-down reagent: single siRNA against human genes, 1 µM siRNA in the printed spot mix
Duration: 67 h
Challenge: half the arrays: hydroxyurea 2 mM for 16 h, then 3 h recovery; other arrays untreated
Measurement: 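DNA synthesis measured as imaged EdU uptake per nucleus (DAPI) at 67 h, normalised to subgrid median and given as z-score versus non-targeting controls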
Reading the numbers: EdU z-score, cyclin E line, hydroxyurea: higher = more DNA synthesis than non-targeting controls

| EdU z-score, cyclin E line, hydroxyurea | gene symbol | reagent no. |
| --- | --- | --- |
| -2.11 | NFIA | 1 |
| 1.72 | NFIA | 2 |
| 0.826 | PEDS1-UBE2V1 | 1 |
| 2.44 | PEDS1-UBE2V1 | 2 |
| -0.279 | NCAPH | 1 |
| 0.833 | NCAPH | 2 |
| -0.296 | ORC2 | 1 |
| 0.989 | ORC2 | 2 |
| -2.06 | KDM4A | 1 |
| 0.0199 | KDM4A | 2 |
| -0.475 | HDAC7 | 1 |
| -0.451 | HDAC7 | 2 |
| -0.288 | TNFAIP1 | 1 |
| 1.21 | TNFAIP1 | 2 |
| -0.65 | SIRT5 | 1 |
| 2.25 | SIRT5 | 2 |
| -2.96 | POLD4 | 1 |
| 0.653 | POLD4 | 2 |
| 0.178 | CUL4A | 1 |
| 1.3 | CUL4A | 2 |
| 0.925 | MUS81 | 1 |
| 2.05 | MUS81 | 2 |
| -0.457 | UCN | 1 |
| 0.636 | UCN | 2 |
| -0.537 | LOC440577 | 1 |
| 0.111 | LOC440577 | 2 |
| 0.0601 | KAT6A | 1 |
| 0.495 | KAT6A | 2 |
| -0.859 | HELZ | 1 |
| 0.195 | HELZ | 2 |
| -1.04 | CENPH | 1 |
| 1.47 | CENPH | 2 |
| 0.00383 | ZNRF1 | 1 |
| 0.85 | ZNRF1 | 2 |
| -0.959 | EGF | 1 |
| 0.813 | EGF | 2 |
| -0.21 | LOC644992 | 1 |
| 1.31 | LOC644992 | 2 |

7 neighbouring reagents from above, for reference:
| EdU z-score, cyclin E line, hydroxyurea | gene symbol | reagent no. |
| --- | --- | --- |
| -2.06 | KDM4A | 1 |
| 0.0199 | KDM4A | 2 |
| -0.475 | HDAC7 | 1 |
| -0.451 | HDAC7 | 2 |
| -0.288 | TNFAIP1 | 1 |
| 1.21 | TNFAIP1 | 2 |
| -0.65 | SIRT5 | 1 |

Further entries follow:
| EdU z-score, cyclin E line, hydroxyurea | gene symbol | reagent no. |
| --- | --- | --- |
| -1.92 | LOC648822 | 1 |
| 0.961 | LOC648822 | 2 |
| -0.665 | CCNA1 | 1 |
| 0.144 | CCNA1 | 2 |
| -1.25 | CDC6 | 1 |
| 1.6 | CDC6 | 2 |
| -0.737 | SUMO4 | 1 |
| -0.53 | SUMO4 | 2 |
| -0.228 | SFPQ | 1 |
| 0.676 | SFPQ | 2 |
| -0.486 | RNF217 | 1 |
| 0.477 | RNF217 | 2 |
| -2.28 | GADD45A | 1 |
| -1.61 | GADD45A | 2 |
| -1.21 | DNA2 | 1 |
| 0.895 | DNA2 | 2 |
| -0.249 | CDKN2D | 1 |
| 1 | CDKN2D | 2 |
| -0.85 | SLX1B | 1 |
| -0.0928 | SLX1B | 2 |
| -0.0568 | TOPORS | 1 |
| -0.0367 | TOPORS | 2 |
| -0.692 | TRIAP1 | 1 |
| -0.293 | TRIAP1 | 2 |
| -0.253 | KCTD13 | 1 |
| 0.647 | KCTD13 | 2 |
| -0.797 | SMARCD1 | 1 |
| -0.278 | SMARCD1 | 2 |
| -0.616 | GTF2H5 | 1 |
| -0.404 | GTF2H5 | 2 |
| -0.837 | TEP1 | 1 |
| 1.94 | TEP1 | 2 |
| -0.644 | TWNK | 1 |
| 3.54 | TWNK | 2 |
| -0.516 | LOC730324 | 1 |
| 1.31 | LOC730324 | 2 |
